The values below come from PubChem BioAssay AID1508600 (Functional Genomics Laboratory (NCATS/FGL), 2020).

Screen size: about 53,000 sequences; about 3,700 (7%) were called active.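 How the source made its calls: active means gene knockdowns whose robust z-score for IL-1 alpha signal is at least 2 or at most -2, so actives lie on both sides; inactive means the rest.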 Some of the results follow.

A short description of this assay: Components of the Cytosolic LPS Sensing Pathway: Gene Identification via Genome-wide siRNA Screen. Conditions: RAW264.7 macrophages, IL-1a HTRF, actives lie on both sides, screened at 100 nM (by protocol), cells primed 5 h with Pam3CSK4 first. From the text:
Non-canonical inflammasome activation by cytosolic LPS is a critical component of the host response to Gram-negative bacterial infection, however we lack a comprehensive understanding of the cellular processes that control this pathway. Here we describe a genome-wide siRNA screen to identify genes regulating the mouse macrophage IL-1 alpha response to cytosolic LPS.
RAW264.7 cells were maintained in complete DMEM media, comprising DMEM with 4.5 g/L glucose, 10% FBS (Gemini Bio-Products, West Sacramento, CA), 2 mM Glutamine (Lonza) and 20 mM HEPES (Lonza), hereafter complete DMEM.
The RNAi screen was conducted in 384-well format using the Ambion Silencer Mouse Genome siRNA Library (#4391425), which consists of three unique, nonoverlapping, nonpooled siRNAs for each of 17,000 gene targets. siRNA reagents ([…]) were stamped into 384-well white flat-bottom microplates (Corning, 3570) using a Velocity11 VPrep liquid handling system (Agilent) integrated into a BioCel robotic platform (Agilent) in columns 1-22, leaving columns 23-24 empty for negative (Ambion, Negative control #1) and positive (mouse Casp4) controls, respectively. The median value of each plate's negative control column was used to normalize sample wells, and the positive control was used to assess transfection efficiency and assay performance.
Lipofectamine RNAiMAX Transfection Reagent ([…]; Invitrogen) was added in […] serum-free, antibiotic-free media to plate wells using a Thermo Scientific Matrix WellMate and Microplate Stacker. Plates were incubated for 45 min at room temperature to allow for the sufficient formation of siRNA-lipid complexes. Cells were seeded at a density of 1x10^4 cells per well in 20 microL media containing 20% (vol/vol) FBS without antibiotics. The final concentration of siRNA in each well was 100 nM. Cells were cultured for 48h at 37 degrees C in 5% CO2 before addition of […] of TLR ligand Pam3CSK4 for 5 hours. The medium was then removed, replaced with […] growth media and cell were transfected with […] of LipidA and TransIT-TKO (Mirus) for 24 hour. At the end of the LipidA treatment, […] of supernatant was transferred to a 384 Greiner Bio-one non-binding low volume plate and […] of IL-1a HTRF reagent (Cisbio, 62MIL1APEH) was added and incubated at room temperature overnight. The plates were read on an EnVision plate reader (PerkinElmer). Cell viability was measured by adding 20ul Cell Titer Glo to the original plate and running a luminescence read on the EnVision. The quantified IL-1a signal for each siRNA gene-targeted well was divided by the median of the negative control wells and multiplied by 100 to achieve a negative control normalized value for each well/siRNA. This normalized value was then used to generate a robust z-score by first taking the log of each value and then by subtracting the median and dividing by the […].
With GCAUAAACUAACCACUUAGTT against Evi2b, the z-score was inactive: -1.77. With GCUAUAAGUUUCUGGGUGATT against Fzd2, the z-score was inactive: 0.658. Consider GGCUGUGAAAUCGGAUUUATT against Cacnb2, for which the z-score is inactive: 0.217. For the sequence GGACUUGAUUGAAGUCAUATT against Tmem132d, the z-score is inactive: 0.242. Next, GGAGAGUAUGGACAGUAUUTT against Pgc: active: 2.96.

As for GGUUGUUUCCAGUAUUCUGTT against Apc2, the z-score was inactive: 1.18.

Turning to GGGUUAGAACUGACACCCGTT against Elk4, the z-score is inactive: 0.204. Next, GGAUAUACAUGGUCUGUUUTT against Naip5: inactive: 0.318; GCAAGACAAUCGAAGAAUATT against Pgm1: inactive: 0.199; CCAUGGACAUCGAUCACAUTT against Sec14l3: inactive: -1.09. Next, GGUUCAUGUAGCAGUGGAUTT against Isoc2b: inactive: -1.21; AUGGGCUGUUUAAAGUCCATT against Aim2: inactive: 0.555; GAGGGAGAUGUCGUCCAAGTT against Gng13: inactive: 0.223. The value for GGGACCAGAACCACAAACATT against Ghsr was inactive: -1.62. For GCGAGUAGGCAUGAUCGUUTT against Vsig8, the z-score is inactive: 0.555. Next, GGAGAAUGGAAAGUAUGGGTT against D1Pas1: inactive: -1.99; GGCCUGAGGACUAUGUUUUTT against C1s1: inactive: -0.149. Next, GGAUGGAGACCUCUCCUUUTT against Guca2a: inactive: 1.36; “GGUUGUGAGCUAACAAUGGTT against B430209F14Rik”: inactive: 1.25; GCUAGCACAGGGAAUUUAGTT against Rgs20: inactive: 0.334. Take CCCAGACGAGAACUGUAUCTT against Sqor: the z-score was inactive: -0.0381. Take CGAGAACUUCAUCAAUCGCTT against Prss46: the z-score is inactive: -1.98. GGAUUUUUCUAGCAAGUUGTT against Ergic2: the z-score is inactive: 0.814. Next, GGUCAUACUCUAAUCGGACTT against Ctss: inactive: 0.672; GGUAGAGGAUGCGAUGCUGTT against Msi2: active: 4.61; GGAAACUGUAGAGAACAUUTT against Csn1s2b: inactive: -0.378.

For GCAUCUGUGUAGAAGUGGATT against Thrsp, the z-score is inactive: -1.21. The value for GGAGAAGAAAACAUCAAGUTT against Hrh3 was active: 2.52; that for GCCCACGAGCCUCAUGGACTT against Sts was inactive: -0.805. Turning to GCAAACACUUGAAUGUUCATT against Cacnb4, the z-score was inactive: 0.667. With CCCUAGAUGGCCGAAAUAUTT against Dazap1, the z-score is inactive: -1.47. In the case of CGGAACUAUGAAAAGAAAUTT against Stk3, the z-score was inactive: 0.674. With GGACAUUCGUGGUUCCAUCTT against Abcb8, the z-score was inactive: 0.166. As for GCAGACAGCACUAUGUCUUTT against Tceal5, the z-score is inactive: 0.0945. As for GGCAAAAUUUGUGUGCAAATT against Mrc1, the z-score is inactive: 1.02. GGGAAUCUUGGCAUGAUGGTT against Olfr1030: the z-score was inactive: -0.325. Next, GCAGAAGUCUAUCACCUUUTT against Olfr1441: inactive: -0.155; GGUCCAAAAGUUGUUUCAATT against Oga: active: 3.12. GGGCAAACUCUAUAAUCAGTT against BC023105: the z-score was inactive: 0.337. Turning to GGUCUCAGUUUCUCAGAAUTT against Siglece, the z-score was inactive: -1.62. The value for CCACAAAUAUGGUAGGUUCTT against Tmem170 was inactive: -0.867. For the sequence GGAAAUGAAGGCAGCAAUGTT against Olfr1311, the z-score was inactive: -0.376. Next, GCCUUGUCUAUAGGACUGUTT against Grm6: inactive: -0.00801; GGCAGAAAGUAAAUCCGUGTT against Exoc3l4: inactive: -1.22; GGGAUGGACUUAUACCUGUTT against Vmn1r220: inactive: 0.328. Take GCAACAAGUGUUGGACUCATT against Tob2: the z-score is active: -2.04. The value for “GGUAGAUGAUAAUUUCACUTT against 4930595M18Rik” was inactive: -0.894. Take GCGAUGGACUCAAAAAACUTT against Ehd3: the z-score was inactive: 0.0497.

On to GCUAGAUUACUCACAUCUATT against Ivl, for which the z-score is inactive: 1.31.

Take GCUGGAUUAUUUGAGAGUCTT against Trim62: the z-score was active: 2.17.

Consider GCAUUAUGUCCCAACAUAATT against Olfr935, for which the z-score is inactive: 0.0875. The value for CCAUCUCGAUUUGUAUAAUTT against Tmigd1 was inactive: -1.16; that for GCUCAAUAAAGGUGUGGAATT against Cox6a2 was inactive: -0.535; that for GCUGACCUAUUAUCAGAAGTT against Sclt1 was inactive: 1.4. Next, CGUUGCUGACUGCUAUGAATT against Tmprss13: inactive: -1.22. Turning to GCAUAAUUCAGUUGAUUACTT against Fbxw15, the z-score is inactive: 1.36. Regarding GGACCAUUGCCAGAAACUATT against Ptpn20, the z-score was inactive: -0.0169. As to GGAAUCGGACUACCUCAUCTT against Lrp11, the z-score is inactive: 0.218. As for GCUUAUGAACUAACAUAGATT against Ccr2, the z-score was inactive: -0.103. For CGGAAUGAUCUAGAAAAUATT against Arhgap29, the z-score is inactive: 0.954. Next, GGUUUCCAGAAGAAACUCCTT against Vmn1r66: inactive: 0.518; GCAACCUGUAUGCUUUUGUTT against Fbxw17: inactive: 0.447; CCGUCCACACUUUUUGCUGTT against Isyna1: inactive: -0.101.

Take GGCAUGACAGCGGUUAUCUTT against Slc25a16: the z-score is inactive: 0.233.

For GCGCACAGUACAUUCAUUUTT against Drd5, the z-score is active: 3.62. The value for GGGACUUUGAGAAGCAGAGTT against Gja10 was inactive: 0.352; that for UAACAGACCAGUAAAGGCCTT against Klra21 was inactive: 0.322; that for GCUUGAGAUACCAGAACCATT against Zfp449 was inactive: -0.127. For GCUGUAAACCGAAUCAAAGTT against Khdc4, the z-score is inactive: 0.0586. In the case of GGCUGAGAACUACUAUUCUTT against Mesp2, the z-score is inactive: 1.36. Regarding AAGAGGCUUCCGACAAGUGTT against Mt2, the z-score is inactive: 0.23. In the case of GCUACCUUUUAGUGUCCAUTT against Olfr1462, the z-score was inactive: 1.27. Next, GGAGUCAUUGACGGAGGAUTT against Dapk3: inactive: 0.823. With GGCGAGCCAUGUUUGAUGATT against Hs1bp3, the z-score was inactive: 0.25. Next, CCAAUUUAUGCCUGAAACUTT against Rhof: inactive: -1.22. The value for GGAGUCAGUGCACAUAAUGTT against Pan2 was inactive: 0.431; that for GGCGAGAGGAAGAAAGACUTT against Mlph was inactive: 0.87.

Consider GGCUUUUCACAAAACUGUUTT against Zfp120, for which the z-score was inactive: 1.07.

As to GGAUGAAGAACCACUCAAATT against Ankzf1, the z-score was inactive: -1.06. With GGCUAAAAAAAAAUGGUAGTT against Thra, the z-score was inactive: -0.79.

Take “GGAAUACACUCAGAACGCATT against A730008H23Rik”: the z-score is inactive: -1.12. GGCUGUGAUACGACUAAAGTT against Fscn3: the z-score was inactive: 1.55. Next, GGAAGGAAGAAAGGGUUCUTT against Olfr1160: inactive: -0.934; GCUACAUGAUGUUGUGCAGTT against Sec22a: inactive: 0.302. Next, GGACUUUUGAUAGAUGCUATT against Kctd12b: inactive: 1.64. Next, GGCUCAUGUACUGCUACAUTT against Ntsr2: inactive: -1.25. As to GCUCACUCUUUCCAACUAUTT against Ubox5, the z-score is inactive: 0.465. On to GCGACUUUAGCUAAACAUGTT against Kcns2, for which the z-score was inactive: 1.79. Take GGAUUGUUAGCAAAGAAAGTT against Aco1: the z-score was inactive: -0.0776. Next, GACCACACUCAUCCAGGCUTT against Gtpbp6: inactive: 0.817.

For the sequence GGUGGUUAUUUAUUGGUGATT against Sp6, the z-score was inactive: -0.272.

Consider GGAAAUGACCUUGGUGUGUTT against Olfr644, for which the z-score was inactive: -0.696.

With GGAGACUCCUUACGGCAAATT against Bnip1, the z-score was inactive: 0.227. Regarding GCAACAUUCCUACAAUUAATT against Gsta4, the z-score is inactive: 0.457.

GGUUCUUCCUCAAAUUCUUTT against Ebf4: the z-score is inactive: -0.0406. The value for GCUACCAUUUGAUCAGUUUTT against Entpd1 was inactive: 0.665. The value for GGCCUUACUCUUAAGUUCUTT against Brf1 was active: 3.7; that for GGUUCAUACCUGUCUUAUUTT against Slc13a4 was inactive: -0.508; that for GGGUAGUUUUGACUUUGUUTT against Schip1 was inactive: 0.472. Next, GGGAAGCUCAUUGAAGCAGTT against Snrpd3: inactive: 0.431; GGCAGCUUUGGAACAACUATT against Zc3h14: inactive: -0.477; GGCUGUACUUCUGUCCCAUTT against Hus1b: inactive: -1.47. As for GCUGAUACCGUCAUGAAUGTT against Gorasp2, the z-score was inactive: -1.58. GGCAGAAAAUUUUAACCAATT against Marchf7: the z-score is inactive: -1.09. Next, GCUAGUGUGAUACCAUUUATT against Nab1: inactive: 1.63. The value for GCUAGAAGUCAUUUUGAAATT against Mme was inactive: 0.0312. The value for GGCGCAGGGAAUAAUCUACTT against Ccdc121 was inactive: -0.302.
